From the supplement of paper PMC10849652
The other results are listed elsewhere or left out.

Chains of the proteins cited; added tags and fusions are not shown. Lines headed by an entry give the natural chain unless they say otherwise; changes in a name come on top.
UniProt Q9Y2Q5, whole entry, looked up: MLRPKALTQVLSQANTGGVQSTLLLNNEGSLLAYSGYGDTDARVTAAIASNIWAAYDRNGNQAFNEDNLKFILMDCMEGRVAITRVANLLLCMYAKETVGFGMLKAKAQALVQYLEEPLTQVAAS
UniProt O43896: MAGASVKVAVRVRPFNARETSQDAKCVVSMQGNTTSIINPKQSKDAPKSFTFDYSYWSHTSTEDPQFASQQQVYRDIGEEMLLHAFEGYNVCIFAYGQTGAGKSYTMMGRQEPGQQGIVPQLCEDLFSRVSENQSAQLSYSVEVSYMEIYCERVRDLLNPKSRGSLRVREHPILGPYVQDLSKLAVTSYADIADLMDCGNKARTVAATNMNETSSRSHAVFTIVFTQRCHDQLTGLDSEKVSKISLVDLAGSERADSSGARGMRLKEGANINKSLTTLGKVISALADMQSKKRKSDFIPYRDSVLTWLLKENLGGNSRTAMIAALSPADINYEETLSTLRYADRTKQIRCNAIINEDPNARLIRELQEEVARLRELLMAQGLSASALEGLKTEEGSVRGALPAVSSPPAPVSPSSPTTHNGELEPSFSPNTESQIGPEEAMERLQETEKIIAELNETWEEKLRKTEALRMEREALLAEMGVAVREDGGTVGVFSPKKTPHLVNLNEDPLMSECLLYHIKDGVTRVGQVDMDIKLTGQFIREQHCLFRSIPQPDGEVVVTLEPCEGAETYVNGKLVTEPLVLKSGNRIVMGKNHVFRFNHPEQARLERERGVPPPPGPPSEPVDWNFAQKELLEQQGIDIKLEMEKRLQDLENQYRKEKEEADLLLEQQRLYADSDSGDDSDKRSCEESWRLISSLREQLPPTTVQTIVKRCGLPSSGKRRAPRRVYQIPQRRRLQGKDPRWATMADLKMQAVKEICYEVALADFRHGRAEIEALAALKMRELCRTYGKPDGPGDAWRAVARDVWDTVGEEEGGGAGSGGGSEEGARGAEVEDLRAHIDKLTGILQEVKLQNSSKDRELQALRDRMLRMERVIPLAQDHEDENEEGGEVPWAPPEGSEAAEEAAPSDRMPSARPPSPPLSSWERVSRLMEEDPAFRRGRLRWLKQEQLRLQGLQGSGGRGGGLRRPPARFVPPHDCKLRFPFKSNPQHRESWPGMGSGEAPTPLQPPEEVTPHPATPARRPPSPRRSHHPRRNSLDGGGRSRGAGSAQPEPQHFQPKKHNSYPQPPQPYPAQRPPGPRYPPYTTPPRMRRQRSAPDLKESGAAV
UniProt Q8NA19: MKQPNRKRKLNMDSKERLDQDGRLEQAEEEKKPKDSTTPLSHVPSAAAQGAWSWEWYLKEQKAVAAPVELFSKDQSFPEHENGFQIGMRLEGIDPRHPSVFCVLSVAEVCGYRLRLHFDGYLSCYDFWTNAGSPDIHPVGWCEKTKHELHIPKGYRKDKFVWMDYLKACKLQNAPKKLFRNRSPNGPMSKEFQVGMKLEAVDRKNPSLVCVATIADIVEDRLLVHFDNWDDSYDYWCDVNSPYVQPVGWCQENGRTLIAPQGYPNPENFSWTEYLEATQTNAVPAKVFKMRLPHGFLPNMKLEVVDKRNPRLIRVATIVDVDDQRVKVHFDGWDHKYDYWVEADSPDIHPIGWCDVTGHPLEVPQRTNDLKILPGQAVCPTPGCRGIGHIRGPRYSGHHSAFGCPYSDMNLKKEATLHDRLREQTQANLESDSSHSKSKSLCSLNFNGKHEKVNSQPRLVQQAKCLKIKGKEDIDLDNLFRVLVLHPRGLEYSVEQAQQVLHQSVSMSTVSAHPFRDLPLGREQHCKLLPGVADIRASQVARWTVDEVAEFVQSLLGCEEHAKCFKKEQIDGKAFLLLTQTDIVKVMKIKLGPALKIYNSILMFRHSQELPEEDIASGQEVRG
UniProt Q6ZV70: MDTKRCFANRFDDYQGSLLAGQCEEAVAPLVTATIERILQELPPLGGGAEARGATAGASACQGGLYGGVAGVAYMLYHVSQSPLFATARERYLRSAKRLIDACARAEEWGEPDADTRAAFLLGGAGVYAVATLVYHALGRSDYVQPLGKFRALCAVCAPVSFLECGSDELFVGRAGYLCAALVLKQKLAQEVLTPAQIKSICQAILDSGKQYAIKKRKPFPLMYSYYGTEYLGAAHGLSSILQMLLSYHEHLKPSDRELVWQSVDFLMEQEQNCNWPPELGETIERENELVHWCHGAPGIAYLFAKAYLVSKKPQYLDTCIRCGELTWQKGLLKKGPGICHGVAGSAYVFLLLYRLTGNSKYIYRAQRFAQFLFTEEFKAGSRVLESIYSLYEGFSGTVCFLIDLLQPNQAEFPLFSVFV
UniProt Q9P206: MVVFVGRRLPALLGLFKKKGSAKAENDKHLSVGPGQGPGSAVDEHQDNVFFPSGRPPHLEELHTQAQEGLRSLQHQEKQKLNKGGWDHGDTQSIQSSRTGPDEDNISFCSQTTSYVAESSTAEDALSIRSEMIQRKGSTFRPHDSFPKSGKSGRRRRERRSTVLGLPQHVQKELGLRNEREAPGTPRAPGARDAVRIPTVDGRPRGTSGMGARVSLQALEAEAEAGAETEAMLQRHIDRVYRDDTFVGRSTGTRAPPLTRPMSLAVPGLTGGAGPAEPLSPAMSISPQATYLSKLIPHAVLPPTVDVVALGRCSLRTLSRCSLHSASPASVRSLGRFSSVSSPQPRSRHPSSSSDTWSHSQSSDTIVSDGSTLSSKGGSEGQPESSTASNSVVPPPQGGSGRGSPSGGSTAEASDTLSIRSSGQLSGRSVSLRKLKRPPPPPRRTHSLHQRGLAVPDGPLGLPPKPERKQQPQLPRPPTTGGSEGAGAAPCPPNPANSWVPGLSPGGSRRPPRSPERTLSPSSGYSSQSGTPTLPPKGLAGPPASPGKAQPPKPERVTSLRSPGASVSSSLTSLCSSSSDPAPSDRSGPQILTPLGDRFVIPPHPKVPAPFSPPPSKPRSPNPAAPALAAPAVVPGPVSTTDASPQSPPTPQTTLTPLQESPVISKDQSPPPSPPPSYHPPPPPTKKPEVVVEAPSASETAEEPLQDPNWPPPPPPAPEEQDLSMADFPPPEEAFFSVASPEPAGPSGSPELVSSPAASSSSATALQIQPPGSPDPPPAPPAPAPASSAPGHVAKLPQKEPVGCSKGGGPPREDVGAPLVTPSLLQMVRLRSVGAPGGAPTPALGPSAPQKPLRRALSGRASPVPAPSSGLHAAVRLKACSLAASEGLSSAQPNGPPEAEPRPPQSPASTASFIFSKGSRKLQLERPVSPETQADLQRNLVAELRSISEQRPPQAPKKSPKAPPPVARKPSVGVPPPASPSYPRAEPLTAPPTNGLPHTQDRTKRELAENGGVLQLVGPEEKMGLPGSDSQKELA
UniProt Q9H0B6: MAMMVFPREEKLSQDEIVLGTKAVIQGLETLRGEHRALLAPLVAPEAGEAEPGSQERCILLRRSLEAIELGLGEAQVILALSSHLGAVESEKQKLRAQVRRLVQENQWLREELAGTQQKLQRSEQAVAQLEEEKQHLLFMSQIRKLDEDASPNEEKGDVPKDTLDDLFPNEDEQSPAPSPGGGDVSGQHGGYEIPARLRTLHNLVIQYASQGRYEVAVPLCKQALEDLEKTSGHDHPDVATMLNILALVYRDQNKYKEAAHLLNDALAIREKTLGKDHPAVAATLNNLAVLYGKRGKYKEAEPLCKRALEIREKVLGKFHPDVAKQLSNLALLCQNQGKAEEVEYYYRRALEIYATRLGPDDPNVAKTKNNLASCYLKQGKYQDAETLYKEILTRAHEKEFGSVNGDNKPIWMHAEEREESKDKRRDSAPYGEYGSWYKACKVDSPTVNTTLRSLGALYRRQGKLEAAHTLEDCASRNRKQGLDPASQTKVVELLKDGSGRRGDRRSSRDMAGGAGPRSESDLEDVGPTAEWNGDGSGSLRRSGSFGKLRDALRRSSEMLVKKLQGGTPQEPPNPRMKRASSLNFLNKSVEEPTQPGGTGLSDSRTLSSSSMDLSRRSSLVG
UniProt Q16773: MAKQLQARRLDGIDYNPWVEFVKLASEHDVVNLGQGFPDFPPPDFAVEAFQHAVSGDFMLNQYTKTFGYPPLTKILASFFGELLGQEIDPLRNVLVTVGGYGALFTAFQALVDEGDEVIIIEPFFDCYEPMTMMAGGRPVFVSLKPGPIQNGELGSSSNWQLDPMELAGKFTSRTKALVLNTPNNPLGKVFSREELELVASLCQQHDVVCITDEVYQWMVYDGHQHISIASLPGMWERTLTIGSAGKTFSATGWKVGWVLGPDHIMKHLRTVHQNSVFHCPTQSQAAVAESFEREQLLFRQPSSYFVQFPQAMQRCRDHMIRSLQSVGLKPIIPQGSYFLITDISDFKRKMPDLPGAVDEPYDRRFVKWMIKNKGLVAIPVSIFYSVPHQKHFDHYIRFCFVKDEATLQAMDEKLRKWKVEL
UniProt Q02241: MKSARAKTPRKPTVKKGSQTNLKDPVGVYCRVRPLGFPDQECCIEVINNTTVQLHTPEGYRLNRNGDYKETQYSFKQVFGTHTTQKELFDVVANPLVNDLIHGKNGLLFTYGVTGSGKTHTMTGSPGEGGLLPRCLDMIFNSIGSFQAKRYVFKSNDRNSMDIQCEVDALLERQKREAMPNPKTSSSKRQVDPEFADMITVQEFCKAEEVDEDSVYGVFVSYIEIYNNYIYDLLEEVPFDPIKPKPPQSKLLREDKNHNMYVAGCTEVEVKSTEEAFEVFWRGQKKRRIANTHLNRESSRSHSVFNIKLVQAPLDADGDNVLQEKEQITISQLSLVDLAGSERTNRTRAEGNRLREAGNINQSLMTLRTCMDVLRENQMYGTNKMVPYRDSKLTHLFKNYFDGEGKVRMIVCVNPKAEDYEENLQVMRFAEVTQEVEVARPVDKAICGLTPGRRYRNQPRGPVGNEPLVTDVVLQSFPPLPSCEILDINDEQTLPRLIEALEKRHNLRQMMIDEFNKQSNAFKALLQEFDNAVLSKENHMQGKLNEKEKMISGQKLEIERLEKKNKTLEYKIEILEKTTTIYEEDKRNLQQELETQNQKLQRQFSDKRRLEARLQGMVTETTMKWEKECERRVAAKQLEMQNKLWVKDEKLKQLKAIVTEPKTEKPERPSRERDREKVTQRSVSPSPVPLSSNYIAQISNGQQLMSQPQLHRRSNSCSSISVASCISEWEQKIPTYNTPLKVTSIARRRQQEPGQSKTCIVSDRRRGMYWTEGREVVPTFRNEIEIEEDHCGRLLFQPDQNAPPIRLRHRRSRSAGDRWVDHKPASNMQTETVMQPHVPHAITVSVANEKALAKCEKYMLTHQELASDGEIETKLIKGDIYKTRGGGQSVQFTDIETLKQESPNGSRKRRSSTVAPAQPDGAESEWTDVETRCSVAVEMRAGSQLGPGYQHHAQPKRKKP
UniProt Q9Y664: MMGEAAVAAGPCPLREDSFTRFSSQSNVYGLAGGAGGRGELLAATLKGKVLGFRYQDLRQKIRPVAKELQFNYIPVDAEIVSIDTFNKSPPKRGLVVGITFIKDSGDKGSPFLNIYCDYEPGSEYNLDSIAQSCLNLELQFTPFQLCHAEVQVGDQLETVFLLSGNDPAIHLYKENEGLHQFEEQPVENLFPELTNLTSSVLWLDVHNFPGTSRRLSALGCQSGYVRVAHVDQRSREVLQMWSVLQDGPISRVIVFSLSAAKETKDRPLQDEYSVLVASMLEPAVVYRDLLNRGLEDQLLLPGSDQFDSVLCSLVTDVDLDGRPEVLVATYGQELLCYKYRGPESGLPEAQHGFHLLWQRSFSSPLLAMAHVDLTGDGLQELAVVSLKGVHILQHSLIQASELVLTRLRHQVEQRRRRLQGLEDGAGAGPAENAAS
UniProt O43813, whole entry, looked up: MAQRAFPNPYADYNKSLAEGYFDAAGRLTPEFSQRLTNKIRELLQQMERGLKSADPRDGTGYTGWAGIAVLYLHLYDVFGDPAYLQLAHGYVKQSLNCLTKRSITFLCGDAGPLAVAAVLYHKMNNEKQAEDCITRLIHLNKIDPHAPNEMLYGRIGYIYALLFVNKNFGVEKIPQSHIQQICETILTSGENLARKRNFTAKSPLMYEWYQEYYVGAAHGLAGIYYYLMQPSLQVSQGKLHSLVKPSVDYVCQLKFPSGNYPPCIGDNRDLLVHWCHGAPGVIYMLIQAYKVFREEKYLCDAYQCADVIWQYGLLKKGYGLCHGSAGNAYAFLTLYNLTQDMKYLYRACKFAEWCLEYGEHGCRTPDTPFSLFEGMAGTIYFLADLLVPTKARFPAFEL
UniProt Q07666, whole entry, looked up: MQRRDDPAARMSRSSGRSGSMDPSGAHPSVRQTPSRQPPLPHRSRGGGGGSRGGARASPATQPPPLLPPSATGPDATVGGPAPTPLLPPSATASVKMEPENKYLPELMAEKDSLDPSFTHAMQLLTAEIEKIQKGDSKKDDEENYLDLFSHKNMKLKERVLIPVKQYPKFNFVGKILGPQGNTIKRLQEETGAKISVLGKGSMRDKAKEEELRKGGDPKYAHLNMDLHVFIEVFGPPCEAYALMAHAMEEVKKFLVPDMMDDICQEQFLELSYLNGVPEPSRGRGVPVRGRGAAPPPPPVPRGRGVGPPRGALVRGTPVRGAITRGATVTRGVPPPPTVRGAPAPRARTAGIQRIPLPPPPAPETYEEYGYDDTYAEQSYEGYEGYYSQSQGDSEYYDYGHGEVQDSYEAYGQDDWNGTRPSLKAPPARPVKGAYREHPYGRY

Assays:
Assay in all cases: log2 fold change, soluble protein after heating vs DMSO (PISA); higher = thermal stabilisation; K562 lysate, 10 uM; active = over 0.2 and 3.5 SD of the protein, either way, in both replicates (recomputed)
[1] = compound: C1=CC=C(C=C1)[C@H](COC2=CC3=C(C=C2)NC(=O)N3)NC(=O)C4=CC=CN(C4=O)CC5=CC(=C(C=C5)F)F
How it was run: (§1)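 Following dounce homogenisation of K562 pellets in PBS pH 7.4 with 1 mM MgCl2, crude extract at 1 mg/mL protein was incubated for 30 min with 10 μM compound. Aliquots were then heated for 3 min over 48°C-58°C and pooled, NP-40 was added to 0.5% at 4°C, and soluble protein was recovered as the supernatant at 21,000xg for 90 min. Channel-sum-equalised TMTpro 16plex LC-MS/MS quantified this protein. Each value, from duplicates, is a log-two fold change in thermal stability relative to solvent controls.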

[2] = compound: CC1=C(SC2=C1C(=N[C@H](C3=NN=C(N32)C)CC(=O)N)C4=CC=C(C=C4)Cl)C
How it was run: as §1

[3] = compound: CC1=C2C(=CC=C1)N=C(N(C2=O)C3=CC=CC=C3C)CN4C=NC5=C(N=CN=C54)N
How it was run: as §1

[4] = compound: c1ccc([C@@H]2C[C@H]2NC2CCNCC2)cc1
How it was run: as §1

[5] = compound: Cc1sc2c(c1C)C(c1ccc(Cl)cc1)=N[C@@H](CC(=O)OC(C)(C)C)c1nnc(C)n1-2
How it was run: as §1

Measured: log2 fold change

LAMA2 (UniProt P24043)
inactive: [1] 0.217 | [2] -0.035 | [3] -0.021 | [4] -0.341

LAMTOR2 (UniProt Q9Y2Q5)
inactive: [1] -0.085 | [2] -0.137 | [3] 0.055 | [5] -0.023 | [4] -0.159

KIF1C (UniProt O43896)
inactive: [1] -0.051 | [2] 0.125 | [3] 0.282 | [4] 0.005

L3MBTL4 (UniProt Q8NA19)
inactive: [1] -0.057 | [2] 0.044 | [3] 0.014 | [4] -0.102

LAP3 (UniProt P28838)
inactive: [1] -0.043 | [2] 0.021 | [3] -0.139 | [5] -0.056 | [4] -0.285

KEL (UniProt P23276)
inactive: [1] 0.032 | [2] -0.058 | [3] 0.013 | [5] -0.061 | [4] 0.054

LARP4B (UniProt Q92615)
inactive: [1] 0.031 | [2] -0.034 | [3] 0.002 | [5] 0.03 | [4] -0.037

LANCL3 (UniProt Q6ZV70)
inactive: [1] 0.009 | [2] 0.083 | [3] -0.017 | [4] -0.073

KIAA1522 isoform 2 (UniProt Q9P206)
inactive: [1] 0.021 | [2] -0.036 | [3] 0.018 | [5] -0.016 | [4] -0.031

LAMP1 (UniProt P11279)
inactive: [1] -0.006 | [2] 0.008 | [3] 0.017 | [5] -0.125 | [4] -0.299

LAMB1 (UniProt P07942)
inactive: [1] 0.012 | [2] -0.051 | [3] -0.029 | [5] -0.041 | [4] 0.013

KLC4 isoform 3 (UniProt Q9NSK0)
inactive: [1] 0.011 | [2] 0.004 | [3] -0.003 | [5] 0.01 | [4] 0.014

KIF22 (UniProt Q14807)
inactive: [1] 0.047 | [2] 0.077 | [3] 0.014 | [5] -0.159 | [4] -0.198

KDM6A (UniProt O15550)
inactive: [1] -0.024 | [2] -0.019 | [3] 0.049 | [5] -0.03 | [4] 0.008

KLHL11 (UniProt Q9NVR0)
inactive: [1] 0.069 | [2] 0.043 | [3] -0.069 | [5] 0.025 | [4] 0.029

LARP1 (UniProt Q6PKG0)
inactive: [1] -0.002 | [2] 0.008 | [3] 0.003 | [5] 0.028 | [4] 0.068

KLHDC3 (UniProt Q9BQ90)
inactive: [1] 0.051 | [2] -0.07 | [3] 0.166 | [5] 0.015 | [4] 0.003

KSR1 (UniProt Q8IVT5)
inactive: [1] -0.081 | [2] -0.024 | [3] 0.035 | [5] 0.035
active: [4] 0.242

KLC2 (UniProt Q9H0B6)
inactive: [1] -0.032 | [2] 0.016 | [3] 0.029 | [5] 0.003 | [4] 0.122

KIDINS220 isoform 4 (UniProt Q9ULH0)
inactive: [1] 0 | [2] 0.032 | [3] 0.077 | [5] -0.018 | [4] 0.034

KYAT1 (UniProt Q16773)
inactive: [1] 0.035 | [2] 0.026 | [3] 0.028 | [5] -0.02 | [4] -0.018

KIF21A isoform 5 (UniProt Q7Z4S6)
inactive: [1] -0.023 | [2] 0.024 | [3] -0.003 | [5] 0.009 | [4] 0.118

KIF20A (UniProt O95235)
inactive: [1] -0.197 | [2] -0.174 | [3] 0.16 | [5] 0.01 | [4] 0.044

KLHL18 (UniProt O94889)
inactive: [1] 0.019 | [2] -0.016 | [3] 0.051 | [5] -0.023 | [4] -0.034

KIF23 isoform 2 (UniProt Q02241)
inactive: [1] 0.032 | [2] 0.044 | [3] 0.038 | [5] -0.013 | [4] 0.045

KEAP1 (UniProt Q14145)
inactive: [1] 0.029 | [2] 0.016 | [3] 0.014 | [5] -0.018 | [4] -0.02

KIF14 (UniProt Q15058)
inactive: [1] 0.028 | [2] -0.148 | [3] 0.059 | [5] -0.012 | [4] 0.039

KPTN (UniProt Q9Y664)
inactive: [1] 0.037 | [2] 0.099 | [3] -0.033 | [5] -0.048 | [4] -0.027

LANCL1 (UniProt O43813)
inactive: [1] 0.011 | [2] 0.004 | [3] -0.007 | [5] 0.026 | [4] -0.045

LARP1B, A0A3B3ISF0
inactive: [1] 0.003 | [2] 0.083 | [3] 0.038 | [5] -0.026 | [4] 0.038

KHSRP (UniProt Q92945)
inactive: [1] 0.01 | [2] -0.011 | [3] -0.007 | [5] 0.026 | [4] -0.035

KHDRBS1 (UniProt Q07666)
inactive: [1] -0.04 | [2] 0.027 | [3] 0 | [5] 0.058 | [4] 0.045

KLHDC10 (UniProt Q6PID8)
inactive: [1] -0.051 | [2] 0.119 | [3] 0.067 | [5] -0.049 | [4] -0.089

KRR1 (UniProt Q13601)
inactive: [1] 0.019 | [2] -0.017 | [3] 0.005 | [5] 0.062 | [4] 0.035

KIF4A (UniProt O95239)
inactive: [1] -0.042 | [2] 0.012 | [3] 0.035 | [5] 0.06 | [4] 0.005

Retrieved one by one from above, three records:
KIF20A (UniProt O95235)
inactive: [1] -0.197 | [2] -0.174 | [3] 0.16 | [5] 0.01 | [4] 0.044

KIF1C (UniProt O43896)
inactive: [1] -0.051 | [2] 0.125 | [3] 0.282 | [4] 0.005

LARP1B, A0A3B3ISF0
inactive: [1] 0.003 | [2] 0.083 | [3] 0.038 | [5] -0.026 | [4] 0.038

The results go on.

LACTB2 (UniProt Q53H82)
inactive: [1] 0.055 | [2] -0.031 | [3] -0.008 | [5] -0.015 | [4] -0.009

KPNA6 (UniProt O60684)
inactive: [1] -0.014 | [2] -0.043 | [3] 0.1 | [5] 0.004 | [4] 0.019
